# Measured values taken from PubChem BioAssay AID2685 (National Center for Advancing Translational Sciences (NCATS), 2010).
# About 2,100 (0.66%) of roughly 320,000 compounds were called active. The inconclusive results got no clear call from the source; some entries with a clear call stand among them for comparison. Calls follow the shape of the dose curve; as a rule, active = well fitted inhibition curve with a large enough effect in the signal ratio, with a control signal flat (not every such curve was filed as active); inconclusive = small, poorly fitted or top-dose-only effect, or effect the other way, or a change in a side signal; inactive = flat fitted curve, though single readings scatter; the % refers to the signal ratio. Where the call is inconclusive, the potency comes from a doubtful curve fit.
# Experiment: qHTS Assay for Lipid Storage Modulators in Drosophila S3 Cells
# Settings: BODIPY lipid droplet fluorescence, 18-24 h, cells fed with added oleic acid; lipid storage change, negative = inhibition: at 46.1 µM (top of the series) unless noted
# Outline: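 Drosophila S3 cells got compounds at several concentrations plus oleic acid (400 uM solution). Laser-scanning cytometry with 488 nm excitation read lipid droplets at 500-530 nm and cells at 575-640 nm. Percent activity was relative to 20 uM Triacsin C.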
# % is scaled to controls: 0 for no effect and ±100 for the full control effect; potency is read from the fitted curve at half-maximal effect.
Structure (SMILES),"lipid storage change, negative = inhibition",Potency
CCOc1ccccc1NC(=O)Cn1cnc2c(nnn2-c2cccc(OC)c2)c1=O,inconclusive: -22.2%,
CC(O)CN1CCN(C(=O)CN2C(=O)NC(c3ccccc3)(c3ccccc3)C2=O)CC1 (stereo not drawn),,"inconclusive: 25.9 µM [activator, partial curve, poor fit]"
Cn1c(SCC(=O)NC2CC2)nnc1-c1cccs1,,"inconclusive: 29.1 µM [falling, single point]"
CC1CCCC(NC(=O)COC(=O)/C=C/c2ccc3c(c2)OCO3)C1C (stereo not drawn),inconclusive: 16.8%,
COCc1cc(Sc2ccc(Cl)cc2)nc(-c2ccccc2)n1,inconclusive: 19.2%,
CC(=O)c1cc2c(cc1NC(=O)c1cc(C)nn1-c1ccccc1)OCO2,,"inconclusive: 1.46 µM [activator, full curve]"
COc1cccc2sc(Nc3nnc(-c4cccs4)o3)nc12,inconclusive: -15.6%,
CCc1nc2ccccc2n1Cc1cc(=O)n2cc(C)ccc2n1,inconclusive: 17.8%,
COc1ccc(NS(=O)(=O)c2cccs2)cn1,inconclusive: 7%,
NC(=O)OCC(COC(N)=O)c1ccccc1,inconclusive: 8.84%,
Nc1cc(=O)[nH]c(SCC(=O)Nc2ccc(S(=O)(=O)N3CCCCC3)cc2)n1,,"inconclusive: 6.51 µM [falling, single point]"
O=C(COc1ccc(-n2cnnn2)cc1)NCCc1ccc(F)cc1,inconclusive: 25%,
CCCC(=O)N1CCN(c2nc3ccc(CC)cc3s2)CC1,inconclusive: 283%,
Cn1c(CCN2CCCCC2)nc2cc(NS(=O)(=O)c3ccc(Cl)cc3)ccc21,inconclusive: -11.7%,
CCNC(=S)Nc1ccc(Cc2nc3ccccc3[nH]2)cc1,inconclusive: -0.983%,
c1ccc(-c2csc(NC3CCCCC3)n2)cc1,,"inconclusive: 29.1 µM [activator, single point]"
O=C(Cn1cnc2ccccc2c1=O)Nc1ccccc1N1CCOCC1,,"inconclusive: 6.51 µM [rising, partial curve, poor fit]"
O=C(O)C1CC(=O)N(c2ccc(OCc3ccc(Cl)cc3Cl)cc2)C1 (stereo not drawn),,"inconclusive: 1.84 µM [falling, partial curve]"
CCOC(=O)Cc1csc(NC(=S)NC(=O)c2cc(OC)cc(OC)c2)n1,inconclusive: 5.14%,
O=C(Cc1ccc(-c2ccccc2)cc1)NCCN1CCOCC1,,"inconclusive: 4.61 µM [activator, single point]"
COc1ccc(CNC(=O)CCCn2nc(C)n3ccnc3c2=O)cc1,inconclusive: 12.9%,
COc1ccc(C(CC(=O)O)N2C(=O)CCC2=O)cc1 (stereo not drawn),,"inconclusive: 18.4 µM [activator, partial curve]"
CC1C=CCC2C(=O)N(c3cccc(C(=O)N4CCN(c5ccc(F)cc5)CC4)c3)C(=O)C12 (stereo not drawn),inconclusive: 9.65%,
O=C(O)c1ccc(COc2ccc3c(c2)CCC3)cc1,inconclusive: -12.1%,
COc1cccc(NC(=O)CCC(=O)N2CC(C)Oc3ccc(C)cc32)c1 (stereo not drawn),,"inconclusive: 14.6 µM [falling, single point]"
CC1CN(C(=S)NC(=O)c2ccc(Cl)cc2)CC(C)O1 (stereo not drawn),inconclusive: 0.121%,

# Rewritten with bars between the fields: four of the compounds above
Structure (SMILES) | lipid storage change, negative = inhibition | Potency
Cn1c(CCN2CCCCC2)nc2cc(NS(=O)(=O)c3ccc(Cl)cc3)ccc21 | inconclusive: -11.7% | 
CCNC(=S)Nc1ccc(Cc2nc3ccccc3[nH]2)cc1 | inconclusive: -0.983% | 
c1ccc(-c2csc(NC3CCCCC3)n2)cc1 |  | inconclusive: 29.1 µM [activator, single point]
O=C(Cn1cnc2ccccc2c1=O)Nc1ccccc1N1CCOCC1 |  | inconclusive: 6.51 µM [rising, partial curve, poor fit]

# Next part:

Structure (SMILES),"lipid storage change, negative = inhibition",Potency
CC(=O)OC(C(=O)NCS(=O)(=O)c1ccc(C)cc1)c1cccnc1 (stereo not drawn),inconclusive: 4.93%,
Cc1nnc(NC(=O)CN2C(=O)NC3(CCCC3)C2=O)s1,inconclusive: -13.9%,
COCC1OS(=O)(=O)NC(CC(=O)SC(C)(C)C)C1C (stereo not drawn),inconclusive: -20.4%,
CN(C)S(=O)(=O)c1ccc2c(c1)C(CC(=O)O)NC2=O (stereo not drawn),inconclusive: -6.29%,
COc1ccc2oc(-c3ccccc3)c(C(N)=O)c2c1,inconclusive: 12.4%,
CC(=O)c1ccc(OCCCC(=O)NC2CCC(C)CC2)cc1 (stereo not drawn),inconclusive: -29.1%,
COc1ccc(OCC(=O)NNC(=O)C(=O)Nc2ccc(C)cc2)cc1,,"inconclusive: 2.31 µM [activator, full curve]"
CCn1c(=O)c(-c2ccccc2)c(O)c2ccccc21,inconclusive: -11.8%,
C[N+](C)=C1SCC(C)(/C=N/O)S1 (stereo not drawn),inconclusive: -43.1%,
CCn1cc(C(=O)O)c(=O)c2cc(F)c(N3CCN(C(=S)NC(=O)c4c(OC)cccc4OC)CC3)cc21,,"inconclusive: 29.1 µM [rising, single point]"
O=C(NCc1ccco1)c1ccccc1SCC(=O)N1CCCC1,inconclusive: 5.08%,
N=c1c2c(-c3ccccc3)c(-c3ccccc3)n(Cc3ccco3)c2ncn1Cc1ccco1,inconclusive: -9.68%,
O=C(Nc1cccs1)Nc1ccccc1Cl,,"inconclusive: 9.2 µM [activator, partial curve]"
CCCC(=O)Nc1ccc(Cl)c(NC(=S)NC(=O)c2cc3ccccc3o2)c1,,"inconclusive: 3.26 µM [cytotoxic, full curve]"
CC(=O)Nc1ccc(N2Cc3ccccc3C2)cc1,inconclusive: 102%,
COc1ccccc1OCC(O)Cn1nc(C)cc1C (stereo not drawn),inconclusive: 13.6%,
CCOC(=O)c1nnn2c1nc(Nc1cccc(C(F)(F)F)c1)c1ccccc12,inconclusive: -1.45%,
CCN(CC)CCN1C(=O)C(=O)/C(=C(/O)c2ccc(OC(C)C)cc2)C1c1ccncc1 (stereo not drawn),,"inconclusive: 1.3 µM [falling, full curve, poor fit]"
CCOC(=O)CNC(=O)CSc1nc2cccnc2n1Cc1ccccc1,inconclusive: 56.6%,
O=C(CSc1nc(-c2ccccc2)c(-c2ccccc2)[nH]1)NCC1CCCO1 (stereo not drawn),inconclusive: 9.82%,
O=C(CCn1nnc2ccccc2c1=O)NCC1CCC(C(=O)O)CC1 (stereo not drawn),inconclusive: -37.8%,
Cc1ccc(S(=O)(=O)N(C)C)cc1NC(=S)Nc1ccc2[nH]c(=O)[nH]c2c1,inconclusive: 11.5%,
O=C1OC(NCc2cccnc2)(c2ccc(Cl)cc2)c2ccccc21 (stereo not drawn),inconclusive: 29.2%,
Cc1cc(C)c(C)c(S(=O)(=O)N[C@@H](C)C(=O)OCC(N)=O)c1C,inactive: -8.61%,
CC(=O)N1C(=O)CC(C)N(C(C)=O)c2ccc([N+](=O)[O-])cc21 (stereo not drawn),inactive: 2.55%,
CS(=O)(=O)c1ccc(-c2nnc(NC(=O)C3=COCCO3)o2)cc1,inconclusive: -1.94%,

Structure (SMILES),"lipid storage change, negative = inhibition",Potency
CCOc1ccc2c(c1)sc(N)[n+]2Cc1cc(C)cc2cccnc12,,"inconclusive: 18.4 µM [falling, single point]"
COc1cc2[nH]c(=S)n(C3CC3)c(=O)c2cc1OC,inconclusive: 3.59%,
COCc1nnc(NS(=O)(=O)c2ccc([N+](=O)[O-])cc2)s1,,active: 25.9 µM
O=C(NCc1nc(-c2ccc(C(F)(F)F)cc2)no1)Nc1cc(Cl)cc(Cl)c1,,"inconclusive: 29.1 µM [cytotoxic, single point]"
C=CCn1c(=N)n(CC(=O)c2ccc(OC)cc2)c2ccccc21,,"inconclusive: 7.31 µM [activator, partial curve, poor fit]"
COC(=O)c1ccc(NC(=O)CN2CCC(NC(=O)c3ccco3)CC2)cc1,,"inconclusive: 6.51 µM [rising, single point]"
Cc1ccc(S(=O)(=O)N(C)c2cc(S(N)(=O)=O)c(C)cc2C)cc1,inconclusive: 38%,
O=C(N/N=C/c1c(Cl)[nH]c2ccccc12)c1ccc2c(c1)OCCO2,,"inconclusive: 0.0052 µM [falling, full curve, poor fit]"
CC(=O)c1c(O)c2ccccc2n(Cc2ccccc2)c1=O,inconclusive: -152%,
C=CCNc1nc(C(=O)OCC(=O)Nc2ccccc2C(F)(F)F)cs1,,"inconclusive: 0.731 µM [falling, single point]"
Cn1c2ccccc2c2cc(/C=N/NC(=O)c3cc(O)ccc3O)ccc21,inconclusive: 39.3% [at 0.00295 µM],
COc1ccc(-c2noc(CNC(=O)c3ccoc3C)n2)cc1,inconclusive: 59.6%,
CCN(CC(=O)Nc1ccc(NC(C)=O)cc1)C(=O)Cc1ccccc1F,inconclusive: -58.7%,
COC(=O)CCCC(=O)NC(C)c1cnn(-c2ccccc2C)c1C (stereo not drawn),,"inconclusive: 16.4 µM [falling, partial curve]"
CCOc1ccccc1N1CCN(C(=O)CN2C(=O)NC3(CCCC3)C2=O)CC1,inconclusive,
COC(=O)c1cc(-c2c(-c3ccc4c(c3)OCO4)noc2-c2ccsc2)cc([N+](=O)[O-])c1,,"inconclusive: 0.731 µM [falling, full curve]"
Cc1ccc(NC(=O)NC(=O)COc2ccccc2C(N)=O)c(C)c1,,"inconclusive: 0.146 µM [falling, full curve, poor fit]"
Cc1sc(NC(=O)Cn2cnnn2)nc1-c1ccc(Cl)cc1,inconclusive: 43.6%,
Cc1nc(C)c(C(=O)OC(C)C(=O)Nc2ccc(F)cc2)s1 (stereo not drawn),inconclusive: -22.3%,
O=C(NCc1ccncc1)C1CCCCC1,inconclusive: 2.92%,
O=C(O)COc1ccc(/C=C/C(=O)c2ccc3ccccc3c2)cc1,inconclusive: -194%,
CC(=O)Nc1ccc(C(=O)OCC(=O)NCCC2=CCCCC2)cc1,inconclusive: 14.8%,
O=C(c1ccc([N+](=O)[O-])cc1)N(c1ccccn1)c1ccccn1,inconclusive: 0.995%,
CCOc1ccccc1C(=O)Nc1ccc2nc3n(c(=O)c2c1)CCCCC3,,active: 1.64 µM
CCN(CC)CCNC(=O)c1ccc2c(=O)n(C3CCCC3)c(=S)[nH]c2c1,inconclusive: -24.4%,
COc1cc(NC(=O)Cn2c(C)cc3ccccc3c2=O)cc(OC)c1OC,inconclusive: -4.79%,
